1 substance from patent US20250248376A1 (University of Texas, published 2025) can be followed below.

Assay [1] has as its target T1, Contactin (mouse Cntn1) (mouse, UniProt P12960 21-1001).
T1 construct: whole, on cells; One entry covers both endogenous spinal cord Contactin and Contactin transfected into HEK cells; It was immunoprecipitated from lysates with anti-Contactin antibodies; also called Contactin/F3
T1 sequence (looked up): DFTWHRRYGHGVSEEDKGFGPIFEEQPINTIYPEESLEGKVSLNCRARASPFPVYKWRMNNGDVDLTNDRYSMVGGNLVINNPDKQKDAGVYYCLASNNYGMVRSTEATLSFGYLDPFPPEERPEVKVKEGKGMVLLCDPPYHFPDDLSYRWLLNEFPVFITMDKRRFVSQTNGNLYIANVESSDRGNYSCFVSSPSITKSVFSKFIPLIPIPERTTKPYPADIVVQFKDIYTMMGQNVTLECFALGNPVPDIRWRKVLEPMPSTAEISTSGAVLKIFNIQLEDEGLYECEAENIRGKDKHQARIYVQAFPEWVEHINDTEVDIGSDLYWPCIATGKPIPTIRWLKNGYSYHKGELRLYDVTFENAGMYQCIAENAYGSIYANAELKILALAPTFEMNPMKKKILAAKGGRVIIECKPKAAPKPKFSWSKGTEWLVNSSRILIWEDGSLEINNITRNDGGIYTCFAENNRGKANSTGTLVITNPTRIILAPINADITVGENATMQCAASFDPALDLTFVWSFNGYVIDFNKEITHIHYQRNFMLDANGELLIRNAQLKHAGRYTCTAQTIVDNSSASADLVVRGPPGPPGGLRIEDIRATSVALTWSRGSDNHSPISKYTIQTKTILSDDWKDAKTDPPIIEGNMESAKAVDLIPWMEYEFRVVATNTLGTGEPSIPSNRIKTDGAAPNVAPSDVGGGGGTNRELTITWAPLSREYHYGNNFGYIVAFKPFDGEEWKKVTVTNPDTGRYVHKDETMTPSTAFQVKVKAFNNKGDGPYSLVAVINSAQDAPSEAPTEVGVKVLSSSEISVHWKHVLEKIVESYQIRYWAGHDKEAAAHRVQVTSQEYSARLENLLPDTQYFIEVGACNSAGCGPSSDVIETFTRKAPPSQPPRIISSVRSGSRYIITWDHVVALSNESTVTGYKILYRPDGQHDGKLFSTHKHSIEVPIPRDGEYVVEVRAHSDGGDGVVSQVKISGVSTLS
Description: co-IP with anti-Contactin antibodies from lysates of co-transfected HEK cells (FIG. 17J).

Assay [2] concerns the target T1, Contactin (mouse Cntn1). Nature of the assay: in vitro biochemical analysis, co-expression with Contactin in HEK cells (discussion).

These are yes or no findings as the source states them, for the method shown. Binding can be weak; no strength is given. For some assays here: Binding seen in cells or lysates may run through a third protein.

Take “wild-type Cntnap1^Flag expressed in HEK cells from pCMV-Cntnap1^Flag (OriGene MR223061) (receptor)”: the binding entry with Contactin (mouse Cntn1) [1] and with Contactin (mouse Cntn1) [2] was “binds” each time.
